Source: the supplement of paper PMC11732987, “Enantioselective OTUD7B fragment discovery through chemoproteomics screening and high-throughput optimisation” (Communications Chemistry, 2025)
The list shows a part of the results. The data scatter; read single values as rough.

Legend:
[1] = compound: ClCC(=O)N[C@@H]1CCCc2ccccc12; assay: log2 mean competition ratio of IA-DTB cysteine labelling (DMSO/compound) (log2 ratio); higher = stronger cysteine engagement by compound; conditions: treatment time: 4 h, cell line lysate: HEK293T
Method: (§1)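 IA-DTB competitive cysteine chemoproteomics in HEK293T RIPA lysate. Lysates were treated with compound 29 or 30 at 50 or 200 µM for 4 h, then IA-DTB (500 µM, 1 h), trypsin-digested, NeutrAvidin-enriched and analysed by diaPASEF. Competition ratio = intensity DMSO / intensity compound (n=4 treated, n=64 DMSO); binding: mean log2 CR ≥ 1 and p ≤ 0.05 plus QC filters. Target is the cysteine site.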

[2] = compound: ClCC(=O)N[C@H]1CCCc2ccccc12; assay: as above; conditions: treatment time: 4 h, cell line lysate: HEK293T
Method: as §1

Row | Target | log2 mean competition ratio ([1]; 50 µM) | log2 mean competition ratio ([1]; 200 µM) | log2 mean competition ratio ([2]; 50 µM) | log2 mean competition ratio ([2]; 200 µM)
1 | ISCA2 C79 (UniProt Q86U28) | 0.234 | -0.158 | – | –
2 | IRF3 C222 (UniProt Q14653) | -0.293 | -0.0482 | – | –
3 | ITPRID2 C305 (UniProt P28290) | -0.0933 | -0.108 | – | –
4 | KDM1A C360 (UniProt O60341) | 0.36 | -0.105 | – | –
5 | KDM8 C164 (UniProt Q8N371) | -0.176 | 0.107 | – | –
6 | KIF14 C1418 (UniProt Q15058) | 0.0532 | -0.292 | – | –
7 | KIF20A C43 (UniProt O95235) | -0.392 | -0.351 | – | –
8 | ISCU C130 (UniProt Q9H1K1) | -0.0644 | -0.241 | – | –
9 | ITPR1 C653 (UniProt Q14643) | -0.0625 | -0.132 | – | –
10 | KIAA1522 C804 (UniProt Q9P206) | -0.0835 | 0.469 | – | –
11 | KATNB1 C579 (UniProt Q9BVA0) | 0.13 | -0.0849 | – | –
12 | KIF11 C43 (UniProt P52732) | -0.0392 | -0.00979 | – | –
13 | KIF20B C480 (UniProt Q96Q89) | -0.089 | -0.0497 | – | –
14 | KIF4A C190 (UniProt O95239) | -0.111 | 0.406 | – | –
15 | KIF1B C1607 (UniProt O60333) | -0.133 | -0.367 | – | –
16 | KDM3A C349 (UniProt Q9Y4C1) | -0.373 | 0.248 | – | –
17 | IRF2 C83 (UniProt P14316) | -0.0959 | 0.158 | – | –
18 | JCAD C785 | 0.312 | 0.0688 | – | –
19 | KIF11 C740 (UniProt P52732) | -0.35 | -0.169 | – | –
20 | KIF16B C242 (UniProt Q96L93) | -0.394 | -0.543 | – | –
21 | KDM1A C491 (UniProt O60341) | -0.178 | 0.00102 | – | –
22 | KIAA0232 C703 | -0.153 | -0.105 | – | –
23 | KIF11 C911 (UniProt P52732) | 0.114 | -0.23 | – | –
24 | KAT7 C602 (UniProt O95251) | -0.13 | -0.0332 | – | –

Row | Target | log2 mean competition ratio ([1]; 50 µM) | log2 mean competition ratio ([1]; 200 µM) | log2 mean competition ratio ([2]; 50 µM) | log2 mean competition ratio ([2]; 200 µM)
25 | KDM5C C327 (UniProt P41229) | -0.321 | -0.246 | – | –
26 | KIAA1217 C1693 (UniProt Q5T5P2) | -0.00337 | 0.301 | – | –
27 | ITPR2 C1522 (UniProt Q14571) | -0.235 | -0.641 | – | –
28 | IVNS1ABP C274 (UniProt Q9Y6Y0) | -0.358 | -0.144 | – | –
29 | IST1 C125 (UniProt P53990) | -0.00041 | -0.203 | – | –
30 | KIF2C C287 (UniProt Q99661) | 0.0355 | -0.123 | – | –
31 | JARID2 C1210 (UniProt Q92833) | -0.0478 | 0.149 | – | –
32 | KIF1A C609 | 0.0365 | -0.0822 | – | –
33 | KDM5C C305 (UniProt P41229) | -0.0512 | -0.105 | – | –
34 | KCTD20 C327 (UniProt Q7Z5Y7) | – | -0.0689 | – | –
35 | KIF22 C65 (UniProt Q14807) | -0.0582 | 0.267 | – | –
36 | JRK C428 (UniProt O75564) | -0.11 | -0.0586 | – | –
37 | KIF1B C600 (UniProt O60333) | -0.271 | -0.157 | – | –
38 | KIF16B C863 (UniProt Q96L93) | -0.367 | 0.269 | – | –
39 | KIF26A C1776 (UniProt Q9ULI4) | -0.217 | -0.0221 | -0.25 | –
40 | KANK1 C1072 (UniProt Q14678) | -0.447 | 0.0814 | – | –
41 | KCNK1 C329 (UniProt O00180) | -0.37 | -0.168 | -0.336 | 0.215
42 | KDM5A C1409 (UniProt P29375) | 0.107 | 0.413 | – | –
43 | KAT2A C695 (UniProt Q92830) | -0.106 | -0.215 | – | –
44 | KDM3A C1009 (UniProt Q9Y4C1) | -0.298 | -0.00152 | -0.0259 | 0.304
45 | KIF4A C895 (UniProt O95239) | 0.0481 | 0.0224 | – | –
46 | KIF23 C759 (UniProt Q02241) | -0.0178 | 0.246 | – | –
47 | KIAA1107 C515 | -0.0165 | 0.317 | – | –
48 | ITGAV C172 (UniProt P06756) | 0.0336 | 0.241 | 0.13 | 0.302

19 entries from above in a different format:
Row,Target,log2 mean competition ratio ([1]; 50 µM),log2 mean competition ratio ([1]; 200 µM),log2 mean competition ratio ([2]; 50 µM),log2 mean competition ratio ([2]; 200 µM)
25,KDM5C C327 (UniProt P41229),-0.321,-0.246,–,–
26,KIAA1217 C1693 (UniProt Q5T5P2),-0.00337,0.301,–,–
27,ITPR2 C1522 (UniProt Q14571),-0.235,-0.641,–,–
28,IVNS1ABP C274 (UniProt Q9Y6Y0),-0.358,-0.144,–,–
29,IST1 C125 (UniProt P53990),-0.00041,-0.203,–,–
30,KIF2C C287 (UniProt Q99661),0.0355,-0.123,–,–
32,KIF1A C609,0.0365,-0.0822,–,–
33,KDM5C C305 (UniProt P41229),-0.0512,-0.105,–,–
34,KCTD20 C327 (UniProt Q7Z5Y7),–,-0.0689,–,–
35,KIF22 C65 (UniProt Q14807),-0.0582,0.267,–,–
37,KIF1B C600 (UniProt O60333),-0.271,-0.157,–,–
39,KIF26A C1776 (UniProt Q9ULI4),-0.217,-0.0221,-0.25,–
42,KDM5A C1409 (UniProt P29375),0.107,0.413,–,–
43,KAT2A C695 (UniProt Q92830),-0.106,-0.215,–,–
44,KDM3A C1009 (UniProt Q9Y4C1),-0.298,-0.00152,-0.0259,0.304
45,KIF4A C895 (UniProt O95239),0.0481,0.0224,–,–
46,KIF23 C759 (UniProt Q02241),-0.0178,0.246,–,–
47,KIAA1107 C515,-0.0165,0.317,–,–
48,ITGAV C172 (UniProt P06756),0.0336,0.241,0.13,0.302

(listing goes on)

Row | Target | log2 mean competition ratio ([1]; 50 µM) | log2 mean competition ratio ([1]; 200 µM) | log2 mean competition ratio ([2]; 50 µM) | log2 mean competition ratio ([2]; 200 µM)
49 | KIF20A C809 (UniProt O95235) | 0.604 | 0.46 | – | –
50 | KAT14 C547 (UniProt Q9H8E8) | -0.123 | 0.216 | – | –
51 | KIF11 C773 (UniProt P52732) | 0.0314 | -0.0732 | 0.0906 | -0.121
52 | KIF21B C239 (UniProt O75037) | -0.12 | 0.182 | – | -0.712
53 | JPH1 C101 (UniProt Q9HDC5) | -0.177 | -0.0602 | – | 0.118
54 | KIF20B C96 (UniProt Q96Q89) | -0.243 | 0.0777 | – | 0.41
55 | KEAP1 C288 (UniProt Q14145) | -0.0331 | 0.313 | – | –
56 | KIAA0100 C1979 (UniProt Q14667) | 0.175 | 0.0537 | -0.0776 | -0.0935
57 | KIDINS220 C1250 (UniProt Q9ULH0) | -0.0214 | -0.0913 | – | –
58 | JTB C85 (UniProt O76095) | -0.0669 | 0.229 | – | –
59 | JCAD C722 | -0.0228 | -0.325 | – | –
60 | ITPR2 C1462 (UniProt Q14571) | -0.121 | 0.023 | – | –
61 | KIAA0754 C242 (UniProt O94854) | -0.204 | 0.434 | 0.104 | 0.00627
62 | JUP C457 (UniProt P14923) | -0.311 | 0.274 | – | –
63 | KIF2C C610 (UniProt Q99661) | -0.0458 | -0.322 | – | –
64 | JRK C166 (UniProt O75564) | -0.311 | 0.909 | – | 0.101
65 | KIF24 C1154 | -0.154 | 0.356 | – | –
66 | KDM5C C707 (UniProt P41229) | -0.373 | 0.119 | – | –
67 | ITPK1 C156 (UniProt Q13572) | -0.126 | 0.0219 | – | –
68 | JMJD1C C508 (UniProt Q15652) | -0.175 | -0.307 | – | –
69 | KDM3B C937 (UniProt Q7LBC6) | 0.00548 | 0.0798 | – | –
70 | KBTBD8 C413 (UniProt Q8NFY9) | 0.0415 | -0.139 | 0.0265 | -0.376
71 | KIF20A C332 (UniProt O95235) | 0.138 | 0.0296 | – | –
